PubChem BioAssay AID328 (DTP/NCI, 2004)
The list shows only some results of the screen, not a fair sample: it gathers tests that were run many times, whatever their T/C, doses with no T/C, and many T/C values between a quarter and a half above the control. Further doses and runs are listed elsewhere. T/C: endpoint of the treated group in % of that of the vehicle group. Some entries give survivors of the animals treated and no T/C: the source files T/C as zero there, which appears to mark a toxic dose or a test without result, not a measured value. Some doses without a T/C left all or most animals alive at the check, yet need not have been tolerated: survival well below the control is almost never listed, so the zero probably covers shortened survival too. Survivors were counted at the toxicity check, usually on the fifth day, unless a day is given; later deaths do not show. Schedule codes are those of the source, taken here to give the interval after Q, in days (D) or hours (H), and the number of doses after X. Brackets with × count equal records among those shown. Some entries hold several experiments; their values stand side by side, smallest first. Where survival is the endpoint, this PubChem deposit counts one and a half times the control or more as active, and values a quarter to a half above the control carry no call in these data; other NCI protocols may use other cut-offs. Some T/C values carry the count of animals alive at the toxicity check (mostly the fifth day); without a count, all were alive then.

Tested on: BDF1 mice, P388 leukemia ip, median survival T/C
Experiment: NCI In Vivo Anticancer Drug Screen. Data for tumor model P388 Leukemia (intraperitoneal) in B6D2F1 (BDF1) mice
Conditions: T/C endpoint: median survival time, higher T/C = longer survival
Method in brief: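 Reported as T/C, where T is the survival measurement in dosed animals and C the same measurement in vehicle controls.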

[1] = dose: 32.0 mg/kg/injection, schedule: Q01DX009 (ip), vehicle: saline
[2] = dose: 400.0 mg/kg/injection, schedule: Q01DX009 (ip), vehicle: Klucel (hydroxypropylcellulose) (HPC)
[3] = dose: 400.0 mg/kg/injection, schedule: Q01DX009 (ip), vehicle: saline with Tween-80
[4] = dose: 25.0 mg/kg/injection, schedule: Q01DX009 (ip), vehicle: saline

S=P(N1CC1)(N1CC1)N1CC1
T/C (dose: 0.38 mg/kg/injection, schedule: Q01DX009 (ip), vehicle: saline): 134 % of control
T/C (dose: 0.75 mg/kg/injection, schedule: Q01DX009 (ip), vehicle: saline): 130 % of control
survivor count (dose: 0.75 mg/kg/injection, schedule: Q01DX010 (ip), vehicle: saline): 6 of 6
T/C (dose: 1.0 mg/kg/injection, schedule: Q01DX009 (ip), vehicle: saline, evaluated on day 30): 98, 111, 121, 224 % of control
T/C (dose: 1.0 mg/kg/injection, schedule: Q01DX009 (ip), vehicle: saline, evaluated on day 60): 104 % of control
T/C (dose: 1.5 mg/kg/injection, schedule: Q01DX009 (ip), vehicle: saline, evaluated on day 30): 130 % of control
T/C (dose: 1.5 mg/kg/injection, schedule: Q01DX009 (ip), vehicle: saline, evaluated on day 60): 127 % of control
T/C (dose: 2.0 mg/kg/injection, schedule: Q01DX001 (oral), vehicle: saline): 133 % of control [9 of 10 alive]
T/C (dose: 2.0 mg/kg/injection, schedule: Q01DX009 (ip), vehicle: saline, evaluated on day 30): 110, 111, 129, 214 % of control
T/C (dose: 2.0 mg/kg/injection, schedule: Q01DX009 (ip), vehicle: saline, evaluated on day 60): 130 % of control
T/C (dose: 3.0 mg/kg/injection, schedule: Q01DX009 (ip), vehicle: saline): 132 and 135 % of control
T/C (dose: 3.0 mg/kg/injection, schedule: Q01DX010 (ip), vehicle: saline): 130 and 131 % of control
survivor count (dose: 4.0 mg/kg/injection, schedule: Q01DX001 (oral), vehicle: saline): 5 of 10
T/C (dose: 4.0 mg/kg/injection, schedule: Q01DX009 (ip), vehicle: saline, evaluated on day 30): 146, 151 (2×), 205 % of control
T/C (dose: 4.0 mg/kg/injection, schedule: Q01DX009 (ip), vehicle: saline, evaluated on day 60): 193 % of control
survivor count (dose: 8.0 mg/kg/injection, schedule: Q01DX001 (oral), vehicle: saline): 2 of 10
T/C (dose: 8.0 mg/kg/injection, schedule: Q01DX009 (ip), vehicle: saline, evaluated on day 30): 91, 92, 100, 111 % of control
T/C (dose: 8.0 mg/kg/injection, schedule: Q01DX009 (ip), vehicle: saline, evaluated on day 60): 120 % of control
survivor count (dose: 12.0 mg/kg/injection, schedule: Q01DX009 (ip), vehicle: saline): 10 of 10 (2×)
survivor count (dose: 16.0 mg/kg/injection, schedule: Q01DX001 (oral), vehicle: saline): 2 of 10
survivor count (dose: 16.0 mg/kg/injection, schedule: Q01DX009 (ip), vehicle: saline): 8 of 10, 10 of 10, 6 of 6
survivor count (dose: 24.0 mg/kg/injection, schedule: Q01DX009 (ip), vehicle: saline): 0 of 10 and 10 of 10
survivor count (dose: 32.0 mg/kg/injection, schedule: Q01DX001 (oral), vehicle: saline): 0 of 10
survivor count [1]: 4 of 10, 5 of 10, 5 of 6
survivor count (dose: 64.0 mg/kg/injection, schedule: Q01DX001 (oral), vehicle: saline): 0 of 10
survivor count (dose: 64.0 mg/kg/injection, schedule: Q01DX009 (ip), vehicle: saline): 1 of 10, 6 of 10, 5 of 6
survivor count (dose: 128.0 mg/kg/injection, schedule: Q01DX001 (oral), vehicle: saline): 1 of 10
survivor count (dose: 256.0 mg/kg/injection, schedule: Q01DX001 (oral), vehicle: saline): 1 of 10
survivor count (dose: 512.0 mg/kg/injection, schedule: Q01DX001 (oral), vehicle: saline): 0 of 10

CCc1ccc(C2=C(O)C(=O)C(c3ccccc3)=C(O)C2=O)cc1
T/C (dose: 25.0 mg/kg/injection, schedule: Q01DX010 (ip), vehicle: saline): 127 % of control
T/C (dose: 75.0 mg/kg/injection, schedule: Q01DX010 (ip), vehicle: acetone): 145 % of control
survivor count (dose: 115.0 mg/kg/injection, schedule: Q01DX010 (ip), vehicle: acetone): 2 of 6
survivor count (dose: 170.0 mg/kg/injection, schedule: Q01DX010 (ip), vehicle: acetone): 0 of 6

CCOC(=O)c1cc(N)c(N2CCCC2)cc1Cl
T/C (dose: 90.0 mg/kg/injection, schedule: Q04DX003 (ip), vehicle: saline with Tween-80): 126 % of control
T/C (dose: 200.0 mg/kg/injection, schedule: Q04DX003 (ip), vehicle: saline with Tween-80): 127 % of control

Cc1ccc(S(=O)(=O)OCC(CO)(COS(=O)(=O)c2ccc(C)cc2)[N+](=O)[O-])cc1
survivor count [2]: 3 of 6

CN(C)c1ccc(C2OC3(CCCCC3)C[N+]23CCCC3)cc1 (stereo unspecified)
survivor count (dose: 60.0 mg/kg/injection, schedule: Q01DX009 (ip), vehicle: saline): 6 of 6
survivor count (dose: 90.0 mg/kg/injection, schedule: Q01DX009 (ip), vehicle: saline): 5 of 6
survivor count (dose: 135.0 mg/kg/injection, schedule: Q01DX009 (ip), vehicle: saline): 2 of 6
survivor count (dose: 150.0 mg/kg/injection, schedule: Q04DX003 (ip), vehicle: Klucel (hydroxypropylcellulose) (HPC)): 5 of 6
survivor count (dose: 225.0 mg/kg/injection, schedule: Q04DX003 (ip), vehicle: Klucel (hydroxypropylcellulose) (HPC)): 2 of 6
survivor count (dose: 300.0 mg/kg/injection, schedule: Q01DX001 (ip), vehicle: Klucel (hydroxypropylcellulose) (HPC)): 1 of 6
survivor count (dose: 335.0 mg/kg/injection, schedule: Q04DX003 (ip), vehicle: Klucel (hydroxypropylcellulose) (HPC)): 0 of 6

Cc1cc(C)c(N)c(Br)c1C
survivor count [3]: 5 of 6

NC(=S)S/C=C/C(=O)O
survivor count [3]: 0 of 6

CN1CCN(c2ccc3nnc(Cl)n3n2)CC1
survivor count (dose: 12.5 mg/kg/injection, schedule: Q01DX009 (ip), vehicle: saline): 6 of 7
survivor count [4]: 7 of 7
survivor count (dose: 50.0 mg/kg/injection, schedule: Q01DX009 (ip), vehicle: saline): 7 of 7

CS/C(N)=N/N
survivor count (dose: 25.0 mg/kg/injection, schedule: Q04DX003 (ip), vehicle: saline): 2 of 6

CC(=O)CC(C)=O.CC(=O)CC(C)=O.c1cc[c]([Sn][c]2ccccc2)cc1
T/C (dose: 25.0 mg/kg/injection, schedule: Q01DX001 (ip), vehicle: Klucel (hydroxypropylcellulose) (HPC)): 132 % of control
T/C (dose: 50.0 mg/kg/injection, schedule: Q01DX001 (ip), vehicle: Klucel (hydroxypropylcellulose) (HPC)): 134 % of control

O=C1C2ON=C(c3ccccc3)C2C(=O)N1OS(=O)(=O)c1ccccc1 (stereo unspecified)
survivor count [3]: 5 of 6

N=C(N)SCCCCCCCCCCSC(=N)N
survivor count (dose: 100.0 mg/kg/injection, schedule: Q01DX009 (ip), vehicle: saline with Tween-80): 0 of 6

CCCC(N=Cc1ccccc1O)C(=O)O.CCCC(N=Cc1ccccc1O)C(=O)O.[Fe] (stereo unspecified)
survivor count (dose: 100.0 mg/kg/injection, schedule: Q01DX009 (ip), vehicle: saline): 0 of 6
survivor count (dose: 100.0 mg/kg/injection, schedule: Q04DX003 (ip), vehicle: saline): 3 of 6
survivor count (dose: 200.0 mg/kg/injection, schedule: Q04DX003 (ip), vehicle: saline): 1 of 6

CC([NH-])C(=O)O.CC([NH-])C(=O)O.[Ni+2] (stereo unspecified)
survivor count [4]: 5 of 6
survivor count [1]: 2 of 6
survivor count (dose: 42.0 mg/kg/injection, schedule: Q01DX009 (ip), vehicle: saline): 0 of 6
survivor count (dose: 50.0 mg/kg/injection, schedule: Q04DX003 (ip), vehicle: saline): 4 of 6

CC(=O)[C@H]1CC[C@H]2[C@@H]3C[C@H](F)C4=CC(=O)CC[C@]4(C)[C@@]3(F)[C@@H](O)C[C@]12C
survivor count (dose: 100.0 mg/kg/injection, schedule: Q01DX009 (ip), vehicle: Klucel (hydroxypropylcellulose) (HPC)): 5 of 6 and 6 of 6
survivor count (dose: 100.0 mg/kg/injection, schedule: Q04DX003 (ip), vehicle: Klucel (hydroxypropylcellulose) (HPC)): 5 of 6
survivor count (dose: 200.0 mg/kg/injection, schedule: Q01DX009 (ip), vehicle: Klucel (hydroxypropylcellulose) (HPC)): 6 of 6
survivor count (dose: 200.0 mg/kg/injection, schedule: Q04DX003 (ip), vehicle: Klucel (hydroxypropylcellulose) (HPC)): 5 of 6
survivor count [2]: 5 of 6 and 6 of 6

c1ccc2c(c1)ccc1cc3c(ccc4ccccc43)cc12
survivor count [3]: 5 of 6
